For at least one compound, name, drawing or mass did not settle the structure.
System: CPT1
Experiment: CPT1 activity in total blood cells of BNX mice after three weeks topical treatment
Assay type: in vivo
Settings: corticosteroid cream daily, 3 weeks; p value>0.05
Procedure: The psoriasis model described by Wrone-Smith and Nickoloff (1996) was used. 5 mm non-lesional skin biopsies from five psoriatic patients were each split in four pieces and transplanted on 20 immuno-deficient BNX mice, i.e. four groups of five mice each. Psoriasis was induced in all mice by injection with donors super-antigen-activated blood cells. After psoriasis had developed, mice were treated for 3 weeks by applying either placebo-cream, cream containing a corticosteroid (betamethasone), 1% Etomoxir or 30% Etomoxir daily on the skin. The cream containing 30% Etomoxir was removed after 30 minutes while the other creams were left on the skin.
After the treatment period, liver and blood of the mice were analyzed for their CPT1 activity and GOT/GPT levels. Furthermore, the epidermal thickness, in particular the depth of reti ridges, the number of Ki67 positive cells and the percentage of ULEX-positive cells (this marker stains the upper layers of the epidermis in normal skin and the whole epidermis in psoriatic skin) in the epidermis were determined. […]
160 μl of bidestilled water was added to wells of a 96-well plate. […] After 5 to 30 min OD at 595 was measured versus reagent blank (0 μg BSA). For the calibration curve the OD was plotted against the concentration of BSA and total protein concentration of the liver samples was calculated in μg/μl. […]

Structure (SMILES): C[C@H]1C[C@H]2[C@@H]3CCC4=CC(=O)C=C[C@]4(C)[C@@]3(F)[C@@H](O)C[C@]2(C)[C@@]1(O)C(=O)CO [corticosteroid, betamethasone]
- CPT1 activity in blood cell pellets versus placebo group: not significantly different

Reference: US7528168B2, “Inhibitors of the fatty acid oxidation for the prophylaxis and/or the treatment of chronic and/or atopic skin diseases” (priority 2002, dated 2009)
